Assay results as given in the RNAGym collection of RNA variant scans (doi:10.1126/science.aae0568).
This sample is rich in variants without activity.

B1: tRNA (parent)
chain: GUUCCGUUGGCGUAAUGGUAACGCGUCUCCCUCCUAAGGAGAAGACUGCGGGUUCGAGUCCCGUACGGAACG

Variants of: B1
Test: yeast fitness relative to wild type (ratio to wild type); higher = fitter; tRNA-Arg(CCU), competitive growth, 37 C, YPD
Method in brief: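 Changes in genotype frequencies gave Darwinian fitness relative to wild type. Frequencies were read by 100-nucleotide paired-end sequencing of gene amplicons before and after pooled Saccharomyces cerevisiae strains, carrying tRNA-Arg(CCU) gene variants at the native locus, were competed in YPD at 37°C for 24 hours in six replicates. A genotype was kept only with ≥ 100 starting reads, and estimates < 0.5 were set to 0.5.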

Variant	yeast fitness
A15U G58C U59C C66G	≤ 0.5
C29G G50A U64C	≤ 0.5
G10A C31U G38C G63A A65G G68C A69G	≤ 0.5
G9A C27G A40G G52A	≤ 0.5
U3A U8A A43U C55U	≤ 0.5
U28C A70U	0.87
U13A C29U A43G U54A U59C C61A	≤ 0.5
C5U C22A C29U G51C	≤ 0.5
G12C A20U C22G G50A	≤ 0.5
C11A U35G U54C G67A	≤ 0.5
U2C G10A C27U G41A G63A	≤ 0.5
U3C G12A G44C	0.546
G10C A37U G52A	≤ 0.5
U7G A15G C55G	≤ 0.5
A40C A45C	0.616
U7G C30U G38A G56C	≤ 0.5
G10A G23A G25A G38A A69C	≤ 0.5
U13C A40C G44A	≤ 0.5
G12A C31U C61G	0.543
C27U U35G A42U G63C	≤ 0.5
U8A C24U A40U A42C A45U U64A	≤ 0.5
C5U A14G C24A G25A C31A	≤ 0.5
C24G U32C A45C C60U C61A	≤ 0.5
U3A C31U A36C G50A G58A	≤ 0.5

Variant	yeast fitness
C5U G12C A21C C24A G41C A65U	≤ 0.5
A14U C30G C33A C60A	≤ 0.5
U28A A40U C61G	≤ 0.5
C5A C34G A36G G67A A70G	≤ 0.5
A20U C22A C34A G44A A57C	≤ 0.5
G10A C24G G58A	≤ 0.5
U2G U54A C55U G68A A69U	≤ 0.5
C5U G44A	1.08
C11G A42C A43U	≤ 0.5
G58C G63C	0.702
A14C C49U G58C	≤ 0.5
G6A C24U G39A G41C	≤ 0.5
C5U A70U	0.98
G6C U7A A21C A37C U47C A69C	≤ 0.5
A36G A40G C55U	≤ 0.5
U7G G23C A45U G51C A69C	≤ 0.5
G6A A14U U59G A65U	≤ 0.5
C11G C60A	≤ 0.5
U7G C34A	0.757
U2A U19A C22G G23C C30G C34A C62U A69C	≤ 0.5
C5G A15C C62U	≤ 0.5
A14C A45U G50C	≤ 0.5
G9A C11G C24G A42U	≤ 0.5
G12C A20U C33U	0.555

Variant	yeast fitness
G17A C22U A37U U47A G68C	≤ 0.5
C4A A70U	0.879
U2C U13C U28G U54A C62A	≤ 0.5
G6C C11A C34G A65U	≤ 0.5
G9A A15U A57G	≤ 0.5
U28A A36U C61A A69U	≤ 0.5
A21C C24G U32A A42C G58C	≤ 0.5
C24G C31G A40U A70C	≤ 0.5
U19A C46U C55G	≤ 0.5
C11G A21U A70U	≤ 0.5
A15U U16C C27U G39A G48A	≤ 0.5
U3A A20U A45G G50A G52A	≤ 0.5
U7C C22U C29G G56A A70U	≤ 0.5
U28C A36C	0.579
C24G C30U A43C C60G A65C	≤ 0.5
C5U U7C U26C U28C C29G C34A	0.659
C4G A40G C46G C60U	≤ 0.5
C11U G23A	0.952
U19A C27G C55U	≤ 0.5
U3G C24A C30U A69U	≤ 0.5
A15C C29U G39C A42U G50U G51C G63A A65U	≤ 0.5
U7A A40G	0.73
C24G U54G C55G C62U	≤ 0.5
A20G C31U G41C A43C C60G	≤ 0.5

Variant	yeast fitness
U2G C31U U64G A65U	≤ 0.5
A15C A36G G56A C61U	≤ 0.5
U35C A43C C55G C60A A65U	≤ 0.5
A37U C62G A70U	≤ 0.5
G6A C31G A70C	0.553
G41C A42C A70C	≤ 0.5
G9C G25C C31U A70G	≤ 0.5
C27U C61U	1.01
C34G A40U A42U G67C	≤ 0.5
U2C C22G U35A A57G C62A	≤ 0.5
C22U C55G	0.578
U2A A36C C55A	≤ 0.5
C24G U26A G41C G68C	≤ 0.5
A15U C30G C61U G68A	≤ 0.5
U2C A45G C60G C62U	≤ 0.5
U19A U32C G67U A69C	≤ 0.5
G9A C31A U47A	≤ 0.5
C4A A21C G39C C49G	0.511
A15G G17A U26C C33U G39C C55A G67C	≤ 0.5
C27A C29G C30G G51A	≤ 0.5
C4U C62G G68A	≤ 0.5
G10C U32C U35G A43C U47C C55U A69C	≤ 0.5
G18C C29U	0.546
U19C C29G U54A A65C	≤ 0.5

Variant	yeast fitness
C5G C30U A36U G51C	≤ 0.5
G6A C34A A40U C55U U59A A70U	≤ 0.5
G17A C34A A57U	≤ 0.5
G6A A15U C22A	≤ 0.5
U8C C30U C31A C33G G48A C61G C66G	≤ 0.5
C4A C30U A69C	≤ 0.5
G38A C61A	0.646
G9C U35G C62A	≤ 0.5
U7A G44C	0.718
C5G U7A A15C A57G	≤ 0.5
A20G G23C A43G G58C U64G	≤ 0.5
C11A U19A C29A	≤ 0.5
G9C C22A G58A C61U	≤ 0.5
C5A C11G C33A G38A G67A	≤ 0.5
U26G C55G	0.636
U13C C30A C31U A36G G50A A65G C66U	≤ 0.5
A15U G50A A57C	≤ 0.5
G12C U32G G50A C66A	≤ 0.5
A21C C29G G50U G68C	≤ 0.5
G17A C62A C66A	≤ 0.5
C11A G17C A45G G67C	≤ 0.5
U8A G18C C24A U32C U64C A65G	≤ 0.5
A14U G51C G52A G56C	≤ 0.5
C30G A37C C46G G56A	≤ 0.5

Variant	yeast fitness
G23C U26C C34U	≤ 0.5
G6A C24U G58A	0.67
C5G A15G C29U A40U A42G U47A	≤ 0.5
A20G U28C C33G G38A U64G	≤ 0.5
U16A C27U G38A	≤ 0.5
C4U G6C G10A A21U A45U G68C	≤ 0.5
C11U U28G A45C	≤ 0.5
A14G C34U C66G	≤ 0.5
G18A C24A G58A	≤ 0.5
C5U A15C U16C C27U A42C	≤ 0.5
C4A U32C G50A A65U	≤ 0.5
U7A G41C A42U C62U	≤ 0.5
C24U A37G G44C	≤ 0.5
C5G C11A A15G G18A C30G C62G A69C	≤ 0.5
C11G U47A G51C A70U	≤ 0.5
G18A G44A	0.637
C5U C11A A43U C66U	0.621
C11U G18C C33G G44A C46G C66U	0.606
C5U C31G C49U C61G	≤ 0.5
G17A A21G G48C	≤ 0.5
A42G U59C C66G G68A	≤ 0.5
C11A A15G C22U C29A A43U A45G A57U	≤ 0.5
C5A U13G	0.841
C11U A15U C60U	≤ 0.5

Variant	yeast fitness
G10A C24G A43C	≤ 0.5
C5G C11U A42U G68A	≤ 0.5
A15U G51C C55G	≤ 0.5
G12A A15G A42G	≤ 0.5
U7C G23A G25A A36U A43U	≤ 0.5
A65C G68A	0.767
A36C G52A C61U	≤ 0.5
C22U C31G A43U C60A	≤ 0.5
C30U A43C G67U	0.571
G6A C31A C33U G41A C55A	≤ 0.5
C4A U54A C62U A65G G68A	≤ 0.5
A43G G52C C62U G63A	≤ 0.5
U35G A40C G63C	≤ 0.5
A21G A45C A57G	≤ 0.5
U13A A14U C24G U28G C31U	≤ 0.5
G18A C27U C31A G44A	≤ 0.5
C27U C29U C62U	0.578
U8A U26C G38A C62U	≤ 0.5
C29G U35C A57U	≤ 0.5
C4U C11U C22G G39C G44C G52C	≤ 0.5
C5A U16G C27U C29U A36U G41A A69C	≤ 0.5
A36U C49A C62G	≤ 0.5
A43U G51C C61G	0.593
C4A A15G G17A U32C C62A A69U	≤ 0.5

Variant	yeast fitness
A21C C29U C31G A43U A57U	≤ 0.5
G9C C27U A42U G63C A70U	≤ 0.5
A40G A43G G44C C61U	≤ 0.5
C31G A45G	0.809
C5U C22A C31G C34U U54C	≤ 0.5
C4G G25C C30G G58C U59A C62G	≤ 0.5
A14C A20U C31U G38C G67A	0.53
A45C U47C C49U	0.806
U3A U8A G25C C30A G50C C55G C60A	≤ 0.5
C5A C22G C29A A43U C60U G67C	≤ 0.5
C5A A20U C29A A65U	≤ 0.5
C24G G52C	≤ 0.5
U8A G9A C66A	≤ 0.5
C29U C33A C34U C46G A57C	≤ 0.5
G17C C24G C31U	≤ 0.5
U19G A40C	0.732
U2G C11G A20U C24G A42G	≤ 0.5
C33U A65U	0.816
U13A A14C C22A A43C	≤ 0.5
C4G C30A A45U C55U	≤ 0.5
C5U G17C A21U A40G U47G G48C C60G	≤ 0.5
G6A A20G C30G U35A G50A	≤ 0.5
C24U C55U C60G U64A G67A	≤ 0.5
A42U G44C A45U G58A C61U A69U	≤ 0.5

Variant	yeast fitness
A20C C30A C33U C34U C49A C62G	≤ 0.5
U32C C46G C62U	0.733
U3A G18A U47C C49G C55G C60A C62A G68A A69U	≤ 0.5
C22U C27U C29U	≤ 0.5
A20U A36G U59A	≤ 0.5
U8A A40U U59A	≤ 0.5
G6C A21G C55A C61A	≤ 0.5
C5G G17C C31U G44A C46A	≤ 0.5
C24U C34U U35G	≤ 0.5
C5G C34A G39C G52A G58A G63A	≤ 0.5
C5G A36G C55U A69U	≤ 0.5
C4U A14G A15G C22U C46U A70U	≤ 0.5
C22G C31U C49U C61A	≤ 0.5
A20U A21G C22A C49G	≤ 0.5
G18C A45U G52C	≤ 0.5
A14G G58C C62A C66G	≤ 0.5
C5U A15U C34U A37G A65C	≤ 0.5
U3A C22G C29U G67C	≤ 0.5
G39C A40G A57U	≤ 0.5
G9A C11U C49G U64A A69U	≤ 0.5
U7C A21U A36U A37C	≤ 0.5
A20G G38U A43C A57U	≤ 0.5
U3C U8G U32A C33G C62U A65G	≤ 0.5
A14C A40C U64C	0.622

Variant	yeast fitness
U7A C27A A37C C55G	≤ 0.5
C11G A14U C27G	≤ 0.5
C5A U26G C60G C61U	≤ 0.5
A20C G44C C61U	0.56
A15U U28C C55G G63A G67U A70C	≤ 0.5
G10C A21G C55G A57G C60A	≤ 0.5
U2C A20C G68A	0.614
G9A C33U G38C A40U A42C A57G	≤ 0.5
A42U G50C U53A	≤ 0.5
G23C A57G A70G	≤ 0.5
A14U U28A G41C A42U G52A	≤ 0.5
G9A C62G	0.896
A14U C22G A57C G63C C66U	0.578
C24G C29U C34G U35C C46G	≤ 0.5
A20G A36U C49G	≤ 0.5
G10A C11U A36C C49A	≤ 0.5
A40G C49A C55A	≤ 0.5
A20U G52A C66U	≤ 0.5
A14C A20C C34A A42U	≤ 0.5
A15G G67A	0.868
C29G G68U	0.68
G6C A14U A36G A42G	≤ 0.5
U2A G17C A42C G50C	≤ 0.5
C4G A14C C30U A40U	≤ 0.5

Variant	yeast fitness
A14G C27G C34G A37U U53A C55G	≤ 0.5
C11A C24G U47G	≤ 0.5
A36G C49U A69C	0.836
U16A C34U A65U G68A	≤ 0.5
G17C U35A G39A	≤ 0.5
U2C G9A C34U G39A C62U	≤ 0.5
G10C U28A	0.59
U3C C22G G67U	0.538
A14U C31A C46U G48A C49U	≤ 0.5
G18C U32A C46U	≤ 0.5
A20G U35C G50C A57U	≤ 0.5
A36U A43C C49A C55G	≤ 0.5
U2G G9A A69U	0.577
C4G C29G U35G G41C C62U U64A	≤ 0.5
C4A U28G C31U A40C A57G	≤ 0.5
U8A A14G C49G	0.538
C27U C33A C49G	≤ 0.5
G6A A20C C31U C33G	≤ 0.5
